# Primary screen of a compound library

Protein sequences, listed by entry. Tags and fused reporters are not part of them.
UniProt E9BF75, entry or part of it: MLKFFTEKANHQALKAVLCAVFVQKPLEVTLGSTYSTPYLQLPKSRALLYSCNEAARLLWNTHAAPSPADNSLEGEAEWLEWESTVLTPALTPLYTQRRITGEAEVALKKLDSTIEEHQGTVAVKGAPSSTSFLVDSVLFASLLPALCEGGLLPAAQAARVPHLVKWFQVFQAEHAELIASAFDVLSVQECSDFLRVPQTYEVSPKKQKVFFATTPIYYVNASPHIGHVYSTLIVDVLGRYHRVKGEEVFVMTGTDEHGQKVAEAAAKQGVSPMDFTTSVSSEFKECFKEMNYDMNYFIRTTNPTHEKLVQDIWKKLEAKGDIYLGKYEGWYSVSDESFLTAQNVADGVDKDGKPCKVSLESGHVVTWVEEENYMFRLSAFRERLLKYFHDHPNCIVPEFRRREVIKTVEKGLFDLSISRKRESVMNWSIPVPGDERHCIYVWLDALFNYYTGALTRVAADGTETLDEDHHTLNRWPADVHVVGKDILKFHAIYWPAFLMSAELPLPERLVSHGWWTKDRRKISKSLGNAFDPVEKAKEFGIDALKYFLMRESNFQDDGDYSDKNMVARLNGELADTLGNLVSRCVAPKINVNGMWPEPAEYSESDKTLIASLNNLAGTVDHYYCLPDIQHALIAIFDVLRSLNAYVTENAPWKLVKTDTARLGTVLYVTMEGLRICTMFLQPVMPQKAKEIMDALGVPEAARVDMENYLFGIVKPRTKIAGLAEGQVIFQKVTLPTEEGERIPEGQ

LdMetRS: 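Methionyl-tRNA synthetase (putative), Leishmania donovani (UniProt E9BF75). Primary screen of methionyl-tRNA synthetase; the read-out is not stated. The test concentration is not given. The values are filed as inhibition. Size under these conditions: about 68,000 compounds, about 24 of them at 50% or above in at least one test.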
Mtb heat-shock: 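Assay on Mycobacterium tuberculosis, filed only as a heat shock assay from Cornell; the read-out is not stated. The concentration is filed as 10 mM, unlikely as a test dose, so the dose is not known. Direction is inferred from retests: higher values go with stronger inhibition. Size under these conditions: about 69,000 compounds, about 930 of them at 50% or above in at least one test.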

All values are in %. The controls that fix the scale are not given in the record; negative values are as filed. The compounds are a random part of those screened.

Cc1cc(NC(=O)C(C)NCCn2cccn2)no1 (stereo unspecified) gave LdMetRS: 5.74%; Mtb heat-shock: -168.7%.
Cc1ccc(CNCc2ccc(-n3nc(C)cc3C)nc2)cc1 gave LdMetRS: 22.45%; Mtb heat-shock: 4.039%.
Cc1nn(CC(C)C)c(N(C)C)c1CNCc1cccnc1N(C)C gave LdMetRS: 9.15%; Mtb heat-shock: 30.22%.
CCc1nc2n(n1)CC(Nc1ccnc(-c3ccccc3)n1)CC2 (stereo unspecified) gave LdMetRS: 16.57%; Mtb heat-shock: 7.303%.
Cc1ccc(N2CCCC(NCc3ccc(-n4ccnc4)cc3)C2)nn1 (stereo unspecified) gave LdMetRS: 1.718%; Mtb heat-shock: -2.253%.
Nc1cc(-c2c[nH]nc2C2CCCN2CCCc2ccccc2)ccn1 (stereo unspecified) gave LdMetRS: 18.69%; Mtb heat-shock: 2.004%.
Cc1ccccc1S(=O)(=O)N[C@@H]1CC[C@@H](N2CCNC(=O)C2)[C@@H]1O gave LdMetRS: 12.21%; Mtb heat-shock: 13.21%.
Cc1ccccc1N1CCN(C(=O)c2ccc[nH]2)C(C)C1 (stereo unspecified) gave LdMetRS: 11.11%; Mtb heat-shock: -0.7249%.
COC(=O)N1CCC(NC(=O)CC(C)CCc2ccccc2)CC1 (stereo unspecified) gave LdMetRS: 10.57%; Mtb heat-shock: 8.259%.
Cn1cccc1CN1CCC2(CCCN(C(=O)Cc3cccnc3)C2)C1 (stereo unspecified) gave LdMetRS: -1.961%; Mtb heat-shock: -20.67%.
O=C(O)C(F)(F)F.[H][C@]12CN(C)C[C@@]1(C(=O)O)CCCN(C(=O)NCc1ccccc1)C2 gave Mtb heat-shock: -1.251%.
CC(C)NC(=O)C1CN(C(=O)c2cccs2)CC12CCOCC2 (stereo unspecified) gave LdMetRS: 16.61%; Mtb heat-shock: -34.17%.
O=C(CC(F)(F)F)N1CCCC(c2nccn2Cc2ccncc2)C1 (stereo unspecified) gave LdMetRS: 17.73%; Mtb heat-shock: -24.66%.
Cc1noc([C@@]23CCO[C@@H]2CCN(C(=O)c2cc(C)[nH]c2C)C3)n1 gave LdMetRS: 14.01%.
O=C(O)C(F)(F)F.[H][C@@]12CCCO[C@]1([H])[C@@H](OCC(=O)N(C)C)CN2Cc1ccc(F)cc1 gave Mtb heat-shock: -13.98%.
CCC(=O)N1CCC(Cc2ccccc2-c2ccncc2)(C(N)=O)C1 (stereo unspecified) gave LdMetRS: 14.89%; Mtb heat-shock: -1.86%.
Cc1cccc(N2CCN(C(=O)CC3(O)CCCC3)C(C)C2)n1 (stereo unspecified) gave LdMetRS: 12.83%; Mtb heat-shock: -1.261%.
O=C(CCc1ccccc1)NCC1CCN(Cc2ccccc2)CC1 gave LdMetRS: 16.9%; Mtb heat-shock: 10.66%.
O=C1CCNc2ncc(-c3cccc(Cl)c3)cc2CN1C1CC1 gave LdMetRS: 17.81%; Mtb heat-shock: 61.09%.
O=C(Nc1ccccc1-c1cccs1)N1CCOCC1 gave LdMetRS: 10.28%; Mtb heat-shock: 10.09%.
CN(C)C(=O)c1ccc2c(c1)N(C)C(CC(=O)NC(C)(C)CO)CO2 (stereo unspecified) gave LdMetRS: 3.54%; Mtb heat-shock: -0.227%.
O=C(O)C(F)(F)F.c1cc(COC[C@H]2CCC[C@]23CNCCO3)ccn1 gave Mtb heat-shock: 31.7%.
OC1CCN(c2ccnc(NCCN3CCc4ccccc4C3)n2)C1 (stereo unspecified) gave LdMetRS: 12.13%; Mtb heat-shock: 5.131%.
O=S(=O)(Cc1ccccc1F)NCCCN1CCCCC1 gave LdMetRS: 8.78%; Mtb heat-shock: 0.5731%.
Cn1cc(C(=O)CC2CCCN2C(=O)c2n[nH]c3ccccc23)cn1 (stereo unspecified) gave LdMetRS: 19.44%; Mtb heat-shock: -5.411%.
Cc1cc(C(=O)N2C[C@@H]3CCCO[C@@H]3[C@H](N3CCOCC3)C2)c(C)[nH]1 gave LdMetRS: 4.255%.
O=C(CC1CC1)N1C[C@@H]2CCN(c3cccnc3)C[C@@H]2C1 gave LdMetRS: 18.91%.
CCN1CCN(C2(C(=O)NC3CCCC3)Cc3ccccc3C2)CC1 gave LdMetRS: 16.91%; Mtb heat-shock: 0.7035%.
CCc1ccsc1C(=O)N1CCN(C(=O)CC(F)(F)F)CC1 gave LdMetRS: 17.77%; Mtb heat-shock: 17.25%.
Cc1noc(C)c1CNCC1CCCN1c1cccnn1 (stereo unspecified) gave LdMetRS: 0%; Mtb heat-shock: -20.7%.
O=C1CN(c2ccc(CNC(=O)c3cccnc3O)cc2F)CCN1 gave LdMetRS: 14.38%; Mtb heat-shock: -0.8427%.
O=C(c1ccnc(-n2ccnc2)c1)N1CCCC(n2ccnc2)C1 (stereo unspecified) gave LdMetRS: 18.8%; Mtb heat-shock: -13.79%.
O=C(O)C(F)(F)F.O=C(O)C(F)(F)F.c1cnc(N2CCC3(CCN(CC4CCCC4)CC3)C2)nc1 gave Mtb heat-shock: -13.81%.
O=C(COCc1ccccc1)N1CCCC1c1noc(C2CC2)n1 (stereo unspecified) gave LdMetRS: 7.407%; Mtb heat-shock: -16.64%.
CCN(CC)Cc1cn2c(n1)CN(Cc1c(C)noc1C)CC2.O=C(O)C(F)(F)F.O=C(O)C(F)(F)F gave Mtb heat-shock: -4.28%.
Cc1ccoc1C(=O)N1CCC(n2cc(CO)nn2)CC1 gave LdMetRS: 5.108%; Mtb heat-shock: 5.328%.
Cc1csc(N2CCN(C(=O)Cc3ccsc3)CC2)n1 gave LdMetRS: 13.07%; Mtb heat-shock: -6.626%.
CC(C)c1ccc(O)c(C(=O)N2CCN(Cc3cscn3)CC2)c1 gave LdMetRS: 15.56%; Mtb heat-shock: 5.944%.
COCCN1CCCC2(CCN(Cc3noc(C4CCCC4)n3)C2)C1=O (stereo unspecified) gave LdMetRS: 15.08%; Mtb heat-shock: -39.84%.
CNc1nc2c(s1)C(=O)CN(C(=O)NCCc1ccccc1)C2 gave LdMetRS: 12.86%; Mtb heat-shock: -23.84%.
CCOc1nnc(CN(C)C2CCCN(c3cccnn3)C2)s1 (stereo unspecified) gave LdMetRS: 14.08%; Mtb heat-shock: 2.759%.
O=C(O)C1CCCN(C(=O)CCn2ccc3c(Cl)cccc32)C1 (stereo unspecified) gave LdMetRS: 12.83%; Mtb heat-shock: -15.72%.
CC[C@@H]1N(Cc2ccco2)CCC[C@]12CCC(=O)N2C gave LdMetRS: -1.603%.
CS(=O)(=O)N[C@@H]1CCN(Cc2cccs2)[C@H]1Cc1cccnc1 gave LdMetRS: 9.841%; Mtb heat-shock: -6.53%.
CCOCc1nc(CSc2ccncc2)n(C2CCN(C)CC2)n1 gave LdMetRS: 8.059%; Mtb heat-shock: -28.9%.
CC1CCN(C(=O)NCC(=O)N(C)CC(F)(F)F)C1 (stereo unspecified) gave LdMetRS: 17.72%; Mtb heat-shock: 18.59%.
Cc1cnn(CC2CCCN2C(=O)c2ccc(OCC3CC3)nc2)c1 (stereo unspecified) gave LdMetRS: 6.733%; Mtb heat-shock: -3.097%.

From ChEMBL document CHEMBL3988442, “University of Dundee, Small-Polar-MMV Screening Library” (2021).